Assay results from publication PMC12040169 (PLOS Biology, 2025).
The other results are listed elsewhere or left out.

Each compound was assayed on T1, CTL2-GFP (C. trachomatis L2/434/Bu, GFP-expressing). Settings: bulk GFP, single well; 28.5 h, 10 µM; inhibitor.
T1 construct: L2/434/Bu, GFP-expressing
Set-up: species or system HeLa; Intracellular C. trachomatis growth in HeLa cells, bulk GFP fluorescence relative to DMSO

| SMILES | % of control remaining [%] |
| --- | --- |
| Cc1cnn(C2CN(CC(=O)N3CCc4sccc4C3)C2)c1 [CBK305097] | 126.394 |
| C=CCNC(=O)N1CC[C@H]2CC(=O)N(Cc3ccc(OC)cc3)CC[C@H]2C1 [CBK288790] | 133.697 |
| CC1CCN(C(=S)NC2CC3CCC2C3)CC1 (centres unmarked) [CBK085998] | 127.727 |
| CCn1c2c(c3cc(S(=O)(=O)c4ccc(C(F)(F)F)cc4)ccc31)CCNCC2 [CBK018453C] | 11.5532 |
| CCn1cncc1C(=O)Nc1ccc(-n2ccnc2C(C)C)cc1 [CBK281379] | 100.737 |
| CC(C)(C)CC(C)(C)NC(=O)NCCc1cccs1 [CBK038697] | 108.48 |
| CCCCOC(=O)c1c(N)n(-c2ccc(C(=O)O)cc2)c2nc3ccccc3nc12 [CBK265046] | 100 |
| Cn1c(SCC(=O)N2CCN(c3cccc(Cl)c3)CC2)nnc1-c1cccc([N+](=O)[O-])c1 [CBK266264] | 144.485 |
| CCN1CC2(CCN(Cc3ncc[nH]3)CC2)c2ccccc21 [CBK131486] | 182.095 |
| CCCC(=O)N1CCC[C@H]1Cn1nc(-c2ccc(F)cc2)ccc1=O [CBK284288] | 114.114 |
| O=C(Oc1ccc(F)cc1C(=O)/C=C/c1cccs1)c1ccc([N+](=O)[O-])cc1 [CBK264925] | 120.983 |
| CN(C)CCn1cnc2c1c(=O)[nH]c(=O)n2Cc1ccccc1 [CBK291235] | 122.029 |
| CCCCNc1cc(N2CCOC(Cn3cc(C)cn3)C2)nc(N)n1 (centres unmarked) [CBK305417] | 79.3767 |
| CC(C)OC(=O)Cn1c(C2CCCNC2)cc2cccnc21 (centres unmarked) [CBK285058] | 123.443 |
| Cn1cc(C2CCCCCN2C(=O)c2ccccc2F)cn1 (centres unmarked) [CBK285119] | 107.473 |
| COc1cc(-c2cncc(NCc3ccncc3)n2)cc(OC)c1OC [CBK065263] | 133.445 |
| O=C(CCC(=O)Nc1ccc(I)cc1)N/N=C/c1ccc(Br)cc1 [CBK262010] | 107.824 |
| CC(=O)N1CCc2cc(-c3cc4c(C)cccn4c3)ccc21 [CBK285225] | 131.169 |
| CC(NC(=O)Cc1ccc(F)cc1)c1nc2cccnc2n1C(C)C (centres unmarked) [CBK283830] | 120.569 |
| COc1ccc2cc(COC(=O)c3ccc([S+](C)[O-])cc3)c(Cl)nc2c1 (centres unmarked) [CBK298267] | 138.505 |
| Cc1ccc(NC(=O)Cc2ccc(N(C)C)cc2)c(C)n1 [CBK200295] | 135.107 |
| CC(C)Nc1cncc(OC2CCOC2)n1 (centres unmarked) [CBK115882] | 135.123 |
| Cc1cccc(-c2nnc(SCC3CC3)n2CC2CCCCC2)c1 [CBK085423] | 115.218 |
| COc1ccc(S(=O)(=O)N(Cc2c(F)cccc2F)C2CCN(C)CC2)cc1 [CBK161910T] | 110.633 |
| CCCn1nnc(NCc2ccc(Cl)cc2)n1 [CBK288089] | 140.748 |
| CCOC(=O)c1c(N)n(-c2cccc(C(F)(F)F)c2)c2nc3ccccc3nc12 [CBK264977] | 113.603 |
| CCCCSc1nc(N)cc(N2CCC(C(=O)N3CCOCC3)CC2)n1 [CBK306619] | 109.973 |

By substructure: the compounds so far with a nitro group on carbon (two)

| SMILES | % of control remaining [%] |
| --- | --- |
| Cn1c(SCC(=O)N2CCN(c3cccc(Cl)c3)CC2)nnc1-c1cccc([N+](=O)[O-])c1 [CBK266264] | 144.485 |
| O=C(Oc1ccc(F)cc1C(=O)/C=C/c1cccs1)c1ccc([N+](=O)[O-])cc1 [CBK264925] | 120.983 |

Remaining list, next part.

| SMILES | % of control remaining [%] |
| --- | --- |
| CC(Cn1cccn1)C(=O)N1CCc2sccc2C1C (centres unmarked) [CBK282074] | 95.5147 |
| Cc1ccc(Cl)cc1N(CC(=O)Nc1ccccc1C(=O)O)S(C)(=O)=O [CBK264020] | 100 |
| CN(C)c1cccc(Nc2cc(-c3cccc([N+](=O)[O-])c3)ncn2)c1 [CBK091012] | 116.92 |
| O=C(NCC(c1cccnc1)N1CCOCC1)c1cnc(-c2ccc(Cl)cc2)c(-c2ccco2)c1 (centres unmarked) [CBK037554] | 207.819 |
| O=C(NCc1cccs1)C1(c2ccccc2)CCCC1 [CBK149533] | 115.877 |
| O=C(NCCCn1ccnc1)c1cc(-c2ccccc2Cl)nc2ccccc12 [CBK262656] | 112.06 |
| CCOc1cc(/C=C2/SC(=S)N(c3cccc(Cl)c3)C2=O)ccc1OCC(=O)O [CBK264966] | 107.896 |
| Nc1nc(/C=C/c2cccs2)nc(-c2ccccc2O)n1 [CBK270033] | 113.017 |
| CS(=O)(=O)Nc1nccnc1OC1CCN(CC2CCCCC2)CC1 [CBK084284] | 106.262 |
| COc1ccnc(N2CCN(C(=O)c3ccncc3Cl)CC2)n1 [CBK304367] | 75.3665 |
| O=C(O)CCc1ccc(S(=O)(=O)NCc2ccccc2)cc1 [CBK287054] | 160.235 |
| Cc1nc(-c2ccccc2)sc1CNC(=O)/C=C\C(=O)Nc1ccc(F)cc1 [CBK092357] | 154.058 |
| O=c1c2cnc3ccnn3c2ccn1C1CCCC1 [CBK288074] | 4.4152 |
| CCC(Sc1nnc(-c2ccc([N+](=O)[O-])cc2)n1C)C(=O)Nc1ccc(Cl)cc1 (centres unmarked) [CBK265785] | 124.124 |
| O=S(=O)(Nc1cccc2[nH]ccc12)c1ccc(F)cc1 [CBK153522] | 112.186 |
| O=C(CC1CCCO1)N1CCn2c(nnc2-c2cncc(Br)c2)C1 (centres unmarked) [CBK304762] | 117.13 |
| Cc1cc(N2CCC(c3cc(CCOc4ccc(Cl)cc4)[nH]n3)C2)nc(C)n1 (centres unmarked) [CBK286119] | 93.0159 |
| COc1cc(=O)n(C)c(C)n1 [CBK007924] | 108.777 |
| CCN(CC)C(=O)C1CCCN(C(=O)Nc2ccc(Cl)cc2)C1 (centres unmarked) [CBK156136] | 133.981 |
| Cc1cc(C)n(C(C)CC(=O)Nc2cccc(OC(C)C)c2)n1 (centres unmarked) [CBK281538] | 101.12 |
| O=C(c1ccc(F)cc1)[C@H]1CCCN(C(=O)c2n[nH]c3c2CCC3)C1 [CBK282322] | 121.073 |
| COCc1nc2n(n1)CC(NC1CCCCc3ccccc31)CC2 (centres unmarked) [CBK304445] | 103.43 |
| CN(C(=S)NCc1ccccc1)C1CC[C@@]2(c3ccc(F)cc3)CCN(C)[C@H]2C1 (some centres unmarked) [CBK003500C] | 118.494 |
| Cc1csc(-c2ccc(C(=O)N(C)CCN(C)C)c(N(C)C)n2)c1 [CBK106088] | 126.476 |
| N#Cc1ccc(CNC2(Cc3cc(C(=O)N4CCCCC4)on3)COC2)cc1 [CBK289672] | 166.233 |
| c1cc(COc2cncc(N3CCCC3)n2)cs1 [CBK115669] | 129.467 |
| CCCc1cc(C(N)=O)c(NC(=O)c2sc3ccccc3c2Cl)s1 [CBK268178] | 127.941 |

| SMILES | % of control remaining [%] |
| --- | --- |
| O=C1CC(c2ccccc2)CC(NCc2ccccc2)=C1C(=S)Nc1ccccc1 (centres unmarked) [CBK264491] | 121.251 |
| CCOc1ccccc1N(CC(=O)Nc1ccc(C)cc1C)S(C)(=O)=O [CBK263799] | 115.477 |
| O=C(O)c1ccc(NS(=O)(=O)c2cccs2)cc1O [CBK092145] | 160.968 |
| O=C(COc1ccc2oc3ccccc3c2c1)c1ccccc1 [CBK268931] | 137.677 |
| COc1cccc(CNC(C(=O)O)c2ccc3c(c2)OCO3)c1 (centres unmarked) [CBK015420D] | 28.0043 |
| Cc1cccc(-c2nc(C3CCCNC3)n3ccccc23)c1 (centres unmarked) [CBK035528] | 103.54 |
| COc1ccccc1-c1ccc(CC2(C(=O)NCCc3ccccc3)CCOCC2)cc1 [CBK286516] | 74.5367 |
| O=C(C1=C(O)C(=O)N(CCCn2ccnc2)C1c1ccc(Br)cc1)c1ccc2c(c1)OCCO2 (centres unmarked) [CBK266081] | 174.64 |
| c1nn(C2CCCCC2)cc1-c1cncn1CCCN1CCCCC1 [CBK281495] | 106.018 |
| CCC(C)C(NC(=O)Cc1c[nH]c2ccccc12)C(=O)O (centres unmarked) [CBK286720] | 108.283 |
| COc1cc(/C=N/Nc2nc(Nc3ccccc3)nc(Nc3ccccc3)n2)ccc1O [CBK262584] | 77.7949 |
| NC(=O)c1ccc(NC(=O)CCCc2nc(-c3ccccc3Cl)no2)cc1 [CBK268932] | 108.921 |
| Cc1ccc2nc(O)c(C3=NN(C(=O)CCC(=O)O)C(c4ccco4)C3)c(-c3ccccc3)c2c1 (centres unmarked) [CBK267544] | 145.732 |
| COc1ccc(CNCc2ccc(Cl)cc2)cc1OC [CBK263315] | 124.515 |
| Cc1onc(-c2ccccc2)c1CNC(=O)c1cscn1 [CBK144089] | 100.339 |
| Cc1cccc(OC(C)C(=O)Nc2ccc(S(=O)(=O)N3CCOCC3)cc2)c1 (centres unmarked) [CBK269609] | 99.6246 |
| CN(C)c1ncc(CNc2nc(O)c3c(n2)CCCC3)cn1 [CBK305460] | 148.477 |
| CCOc1ccc(Cl)cc1CN(C)C(=O)NC(c1ncnn1C)C(C)C (centres unmarked) [CBK307110] | 155.08 |
| COc1ccc(CCCNC(=N)N)cc1Cl [CBK261404G] | 77.6198 |
| CC(Sc1nc(N)cc(N)n1)C(=O)c1ccc(F)c(F)c1 (centres unmarked) [CBK296928] | 96.534 |
| Cc1csc2ncc(C(=O)Nc3ccc(OC(F)(F)F)cc3)c(=O)n12 [CBK287457] | 106.514 |
| CCCC(=O)Nc1c(C)nn(C)c1N1CCNCC1 [CBK045924T] | 112.821 |
| O=C(c1ccc(F)cc1)C1CCN(Cc2ncc[nH]2)CC1 [CBK149135] | 117.386 |
| CC(C)[C@@H](CO)n1c(=O)[nH]c2ncc(-c3cccc4cccnc34)nc21 [CBK064848] | 142.503 |
| Cc1cc(=O)c2ccccc2n1CC(=O)N1CCC2(CCOCC2)CC1 [CBK306869] | 103.345 |
| Cc1cc(C(=O)NCCc2ccc(S(=O)(=O)NC(=O)NC3CCCCC3)cc2)n[nH]1 [CBK023997] | 141.81 |

Some of these compounds in order of formula weight, smallest number first.

| SMILES | % of control remaining [%] |
| --- | --- |
| CCCC(=O)Nc1c(C)nn(C)c1N1CCNCC1 [CBK045924T] | 112.821 |
| CCC(C)C(NC(=O)Cc1c[nH]c2ccccc12)C(=O)O (centres unmarked) [CBK286720] | 108.283 |
| CC(C)[C@@H](CO)n1c(=O)[nH]c2ncc(-c3cccc4cccnc34)nc21 [CBK064848] | 142.503 |
